Entries after “also recorded” stand apart in the source; their conditions may differ. At least one structure is not confirmed: it was looked up by name or label, or the drawing left a doubt.
Assays:
[1] = tested on: A549 cells; assay: Label-free RWG (Epic) biosensor DMR assay, agonism mode, A549 cells; type: cell-based, human; settings: primary profile
Description: (§1) Cells were typically grown using ˜1 to 2×10^4 cells per well at passage 3 to 15 suspended in 50 μl of the corresponding culture medium in the biosensor microplate, and were cultured at 37° C. under air/5% CO2 for ˜1 day. Except for A431 which underwent one day culture followed by one starvation in serum free medium, all other cells were directly assayed without starvation. The confluency for all cells at the time of assays was ˜95% to 100%.
Epic® beta version wavelength interrogation system (Corning Inc., Corning, N.Y.) was used for whole cell sensing. This system consists of a temperature-control unit, an optical detection unit, and an on-board liquid handling unit with robotics. The detection unit is centered on integrated fiber optics, and enables kinetic measures of cellular responses with a time interval of ˜15 sec.
For biosensor cellular assays, molecule solutions were made by diluting the stored concentrated solutions with the HBSS (1× Hanks balanced salt solution, plus 20 mM Hepes, pH 7.1), and transferred into a 384 well polypropylene molecule storage plate to prepare a molecule source plate. […] Both the cell assay plate and the molecule and marker source plate(s) were then incubated in the hotel of the reader system. After ˜1 hr of incubation the baseline wavelengths of all biosensors in the cell assay microplate were recorded and normalized to zero. […]

[2] = tested on: class I PI3Ks; settings: competitive PI3K inhibitor, first described 1994; cited from earlier work
[3] = tested on: HepG2 cells; assay: DMR modulation of the ODN2006-induced response in HepG2 cells; type: cell-based, human; settings: inhibitor 10 micromolar, ODN2006 500 nM
Description: as §1
For biosensor cellular assays, molecule solutions were made by diluting the stored concentrated solutions with the HBSS (1× Hanks balanced salt solution, plus 20 mM Hepes, pH 7.1), and transferred into a 384 well polypropylene molecule storage plate to prepare a molecule source plate. Both molecule and marker source plates were made separately when a two-step assay was performed. In parallel, the cells were washed twice with the HBSS and maintained in 30 μl of the HBSS to prepare a cell assay plate. Both the cell assay plate and the molecule and marker source plate(s) were then incubated in the hotel of the reader system. After ˜1 hr of incubation the baseline wavelengths of all biosensors in the cell assay microplate were recorded and normalized to zero. Afterwards, a 2 to 10 minute continuous recording was carried out to establish a baseline, and to ensure that the cells reached a steady state. […]

[4] = tested on: A549 cells; assay: DMR modulation of marker-induced responses (two-step assay) in A549 cells; type: cell-based, human
Description: The index was generated after normalizing each marker-induced DMR signal in the presence of the inhibitor to its corresponding signal in the absence of the inhibitor. The percentage of modulation for each marker by the inhibitor was plotted as a function of the marker. As shown from left to right in a sequential order, the DMR events used for the basis of the modulation percentage calculation are: the N-DMR (50 min after stimulation) for pinacidil in A549, the P-DMR (50 min after stimulation) for forskolin in A549, the early P-DMR event (˜10 min after histamine stimulation) and the late P-DMR event (˜30 min after histamine stimulation) for histamine in A549, and the early P-DMR event (˜5 min after EGF stimulation) and the subsequent N-DMR event (˜30 min after EGF stimulation) for EGF in A431 cells. In all cases, the amplitudes of respective DMR events were used as the basis to calculate the percentages of modulation by the PI3K inhibitors. The same procedure was used to generate FIGS. 8 to 14.
as §1
For biosensor cellular assays, molecule solutions were made by diluting the stored concentrated solutions with the HBSS (1× Hanks balanced salt solution, plus 20 mM Hepes, pH 7.1), and transferred into a 384 well polypropylene molecule storage plate to prepare a molecule source plate. Both molecule and marker source plates were made separately when a two-step assay was performed. In parallel, the cells were washed twice with the HBSS and maintained in 30 μl of the HBSS to prepare a cell assay plate. Both the cell assay plate and the molecule and marker source plate(s) were then incubated in the hotel of the reader system. After ˜1 hr of incubation the baseline wavelengths of all biosensors in the cell assay microplate were recorded and normalized to zero. Afterwards, a 2 to 10 minute continuous recording was carried out to establish a baseline, and to ensure that the cells reached a steady state. Cellular responses were then triggered by pipetting 10 μl of the marker solutions into the cell assay plate using the on-board liquid handler.
To study the influence of molecules on a marker-induced response, a second stimulation with the marker at a fixed dose (typically at EC80 or EC100) was applied. […]

SMILES: O=c1cc(N2CCOCC2)oc2c(-c3ccccc3)cccc12 [LY294002]
- DMR (biosensor) signal of the compound in A549 cells [1]: N-DMR signal
- IC50 value towards class I PI3Ks [2]: micromolar
- modulation of the ODN2006 DMR signal in HepG2 cells [3]: little impact
- modulation of the pinacidil response in A549 cells ([4]; compound pretreatment ~1 hr (10 micromolar), then pinacidil 10 micromolar): little modulation
- modulation of the forskolin response (P-DMR) in A549 cells ([4]; inhibitor 10 micromolar, forskolin 16 micromolar): potentiated; also recorded: potentiation
- modulation of the histamine response (early and late P-DMR) in A549 cells ([4]; inhibitor 10 micromolar, histamine 10 micromolar): potentiated; also recorded: potentiation
- modulation of the late P-DMR event of the histamine response in A549 cells ([4]; ~30 min after histamine stimulation): largest potentiation
